The values that follow come from patent publication US20210324058A1 (BRIGHAM AND WOMEN S HOSPITAL, published 2021).

The target of assay [1] is T1, endogenous human NEDD9 of human pulmonary artery endothelial cells (lysates and plasma membrane fractions) (human) (UniProt Q14511).
T1 sequence (looked up): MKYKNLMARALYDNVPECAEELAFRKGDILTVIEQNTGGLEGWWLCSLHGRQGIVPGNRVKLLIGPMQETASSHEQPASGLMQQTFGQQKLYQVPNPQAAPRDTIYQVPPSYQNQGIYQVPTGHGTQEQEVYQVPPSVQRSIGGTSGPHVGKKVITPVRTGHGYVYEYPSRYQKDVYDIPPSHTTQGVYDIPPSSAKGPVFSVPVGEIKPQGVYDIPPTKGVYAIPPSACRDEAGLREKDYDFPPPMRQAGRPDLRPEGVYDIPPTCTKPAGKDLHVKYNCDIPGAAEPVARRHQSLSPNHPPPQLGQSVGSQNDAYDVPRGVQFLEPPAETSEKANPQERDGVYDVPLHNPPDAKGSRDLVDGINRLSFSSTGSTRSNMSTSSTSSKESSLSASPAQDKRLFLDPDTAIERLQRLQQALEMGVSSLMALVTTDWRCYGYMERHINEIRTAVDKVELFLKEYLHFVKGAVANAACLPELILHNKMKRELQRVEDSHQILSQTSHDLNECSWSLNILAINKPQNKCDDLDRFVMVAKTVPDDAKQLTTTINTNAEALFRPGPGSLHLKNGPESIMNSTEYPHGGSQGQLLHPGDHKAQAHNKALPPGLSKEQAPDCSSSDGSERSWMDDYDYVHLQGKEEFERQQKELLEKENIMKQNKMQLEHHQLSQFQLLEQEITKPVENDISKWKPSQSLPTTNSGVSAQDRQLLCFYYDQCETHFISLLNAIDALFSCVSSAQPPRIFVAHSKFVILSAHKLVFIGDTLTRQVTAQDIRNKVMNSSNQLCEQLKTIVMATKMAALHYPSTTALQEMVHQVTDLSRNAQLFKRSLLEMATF
The assay can be described thus: co-immunoprecipitation from HPAEC plasma membrane fractions: IP anti-P-Selectin, immunoblot with NEDD9 Ab #1.

For assay [2], the target named is T1, endogenous human NEDD9 of human pulmonary artery endothelial cells (lysates and plasma membrane fractions) (human). The assay can be described thus: anti-P-Selectin IP of HPAEC plasma membrane fractions with recombinant P-Selectin; LC-MS and co-immunoprecipitation.

Results are given in words; binding and its absence hold for the method and conditions named. In cells and extracts the contact can be indirect. Some binding calls cover weakened binding; strength is not graded here.

B1: recombinant P-Selectin/CD62P, R&D Systems ADP3-200 (other, human, UniProt P16109 42-771, looked up)
chain: WTYHYSTKAYSWNISRKYCQNRYTDLVAIQNKNEIDYLNKVLPYYSSYYWIGIRKNNKTWTWVGTKKALTNEAENWADNEPNNKRNNEDCVEIYIKSPSAPGKWNDEHCLKKKHALCYTASCQDMSCSKQGECLETIGNYTCSCYPGFYGPECEYVRECGELELPQHVLMNCSHPLGNFSFNSQCSFHCTDGYQVNGPSKLECLASGIWTNKPPQCLAAQCPPLKIPERGNMTCLHSAKAFQHQSSCSFSCEEGFALVGPEVVQCTASGVWTAPAPVCKAVQCQHLEAPSEGTMDCVHPLTAFAYGSSCKFECQPGYRVRGLDMLRCIDSGHWSAPLPTCEAISCEPLESPVHGSMDCSPSLRAFQYDTNCSFRCAEGFMLRGADIVRCDNLGQWTAPAPVCQALQCQDLPVPNEARVNCSHPFGAFRYQSVCSFTCNEGLLLVGASVLQCLATGNWNSVPPECQAIPCTPLLSPQNGTMTCVQPLGSSSYKSTCQFICDEGYSLSGPERLDCTRSGRWTDSPPMCEAIKCPELFAPEQGSLDCSDTRGEFNVGSTCHFSCDNGFKLEGPNNVECTTSGRWSATPPTCKGIASLPTPGVQCPALTTPGQGTMYCRHHPGTFGFNTTCYFGCNAGFTLIGDSTLSCRPSGQWTAVTPACRAVKCSELHVNKPIAMNCSNLWGNFSYGSICSFHCLEGQLLNGSAQTACQENGHWSTTVPTCQAGPLTIQEA
notes: Bought recombinant protein; Species is read from 'Purified human NEDD9 and P-Selectin/CD62P'; also called exogenous P-Selectin
In the case of B1, the binding entry in assay [1] and in assay [2] was “binds” each time.
